# In PubChem BioAssay AID743266 (National Center for Advancing Translational Sciences (NCATS), 2014):
# Chains of the proteins cited; added tags and fusions are not shown. Lines headed by an entry give the natural chain unless they say otherwise; changes in a name come on top.
# UniProt Q03431: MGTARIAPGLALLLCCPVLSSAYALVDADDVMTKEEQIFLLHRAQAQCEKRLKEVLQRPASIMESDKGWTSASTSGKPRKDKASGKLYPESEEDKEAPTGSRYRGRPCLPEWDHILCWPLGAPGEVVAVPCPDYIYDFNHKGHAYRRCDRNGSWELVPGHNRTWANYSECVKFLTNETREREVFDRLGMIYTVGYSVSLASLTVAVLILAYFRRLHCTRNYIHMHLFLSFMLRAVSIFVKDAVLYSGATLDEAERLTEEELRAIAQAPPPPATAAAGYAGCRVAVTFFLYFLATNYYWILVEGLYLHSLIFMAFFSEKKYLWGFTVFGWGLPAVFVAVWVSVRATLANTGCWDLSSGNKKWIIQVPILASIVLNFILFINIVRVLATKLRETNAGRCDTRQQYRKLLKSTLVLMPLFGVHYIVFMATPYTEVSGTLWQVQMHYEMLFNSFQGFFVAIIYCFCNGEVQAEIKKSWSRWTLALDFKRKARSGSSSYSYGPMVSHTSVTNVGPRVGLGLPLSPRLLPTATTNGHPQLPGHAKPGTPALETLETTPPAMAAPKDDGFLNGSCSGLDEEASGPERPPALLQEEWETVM
# Out of some 410,000 compounds screened, about 310 (0.076%) were called active. This list was built around the results that the source calls inconclusive (neither active nor inactive); the mix of calls is not that of the screen. Calls come from the whole dose curve; as a rule, active = well fitted activation curve with a large enough effect; inconclusive = small, poorly fitted or top-dose-only effect, or another doubt; inactive = no such curve, though single readings can be large or run the other way. A potency beside an inconclusive call is a rough fit, not a confirmed value.
# Biological target: Parathyroid hormone/parathyroid hormone-related peptide receptor (Homo sapiens) (UniProt Q03431)
# Test: qHTS for PTHR1 Agonists: Primary Screen; note: nearly all actives have a fitted effect of over 55% in size
# Details: HEK293 GP2 PTHR1 cells, GloSensor cAMP luminescence, 1 h; activation: at 115 µM (top of the series) unless noted; series mostly up to 115 µM
# Method in brief: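 HEK-293-derived GP2 cells expressing PTHR1 and a GloSensor cAMP reporter, 3,000/well, plated overnight, given luciferin plus IBMX (each 0.5 mM as added) for 1 h at 37 °C, then compound for 1 h at 37 °C. Luminescence was read after 15 min at room temperature.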
# Potency is the fitted concentration of half-maximal effect.
Structure (SMILES),Potency,outcome,activation
CN(CC(=O)Nc1ccccc1Cl)C(=O)COC(=O)CSc1ccc(Cl)cc1,"inconclusive: 89.1 µM [activator, single point]",–,–
S=C(Nc1ccccc1)Nc1ccc(OCc2ccc(Cl)cc2Cl)cc1,–,inactive [at 57.5 µM],–
Cc1nn(CC(=O)NCc2ccc(Cl)cc2)c(=O)c2cc3sccc3n12,"inconclusive: 31.6 µM [activator, single point]",–,–
N#Cc1ccccc1NC(=O)c1ccccc1OCC(=O)Nc1ccc2c(c1)oc1ccccc12,"inconclusive: 25.1 µM [activator, partial curve]",–,–
CC(Sc1nnc(-c2ccccc2F)n1C1CC1)C(=O)NC(N)=O (stereo not given),"inconclusive: 112 µM [activator, single point]",–,–
COc1cc2ncnc(NCc3ccc(C)o3)c2cc1OC,"inconclusive: 56.2 µM [activator, partial curve, poor fit]",–,–
CN(C(=O)CSc1nc2ccc(NC(=O)c3ccccc3)cc2s1)c1ccccc1,–,–,inactive: -5.01%
COc1ccc2cc(C(=O)NCc3ccccc3CN3CCCC3)ccc2c1,"inconclusive: 31.6 µM [activator, single point]",–,–
OC(C#CCN1CCCCC1)c1ccccc1 (stereo not given),"inconclusive: 31.6 µM [activator, single point]",–,–
CCc1nc2c(OCC(N)=O)cccn2c1N(C)C(=O)c1ccc(OC)cc1,"inconclusive: 22.4 µM [activator, single point]",–,–
CCOC(=O)N1CCN(c2c(N3CCN(c4ccccc4F)CC3)c(=O)c2=O)CC1,"inconclusive: 79.4 µM [activator, partial curve, poor fit]",–,–
Cc1ccccc1-c1noc(CSc2nc(-c3ccc(F)cc3)cc(=O)[nH]2)n1,"inconclusive: 126 µM [activator, single point]",–,–
Cc1cc(C)c(O)c(-c2n[nH]c3c2C(c2cccc(O)c2)N(Cc2ccco2)C3=O)c1 (stereo not given),–,–,inconclusive: 58.8% [activator]
COc1ccc(C(CNc2ccc(S(C)(=O)=O)cc2[N+](=O)[O-])N(C)C)cc1OC (stereo not given),–,–,inconclusive: 39.1% [activator]
Cc1ccc(CNc2nc3ccc(C)cc3n3cnnc23)cc1,–,–,inactive: -15.7%
O=C(CC1CCS(=O)(=O)C1)Nc1ccc[nH]c1=O (stereo not given),–,–,inconclusive: 44.1% [activator]
COc1cccc(Nc2nc(C(N)Cc3ccc(C(F)(F)F)cc3)cs2)n1 (stereo not given),–,–,inconclusive: -3.63% [activator]
Cc1ccccc1OCCn1cnc2c(N)ncnc21,"inconclusive: 3.98 µM [activator, partial curve]",–,–
Cc1cccc(NC(=O)C(CC(C)C)NC(=O)C2CCC(C)CC2)n1 (stereo not given),"inconclusive: 39.8 µM [activator, partial curve, poor fit]",–,–
CCn1cc(CNC(=O)c2ccc(OC3CCN(Cc4ccccn4)CC3)cc2)cn1,–,–,inconclusive: -38.7% [activator]
CCCCN(C(=O)c1ccc(S(=O)(=O)N2CCCCC2)cc1)C1CCS(=O)(=O)C1 (stereo not given),"inconclusive: 15.8 µM [activator, partial curve, poor fit]",–,–
COc1cc(/C=N/n2cnnc2-n2nc(C)cc2C)cc([N+](=O)[O-])c1O,"inconclusive: 141 µM [activator, single point]",–,–
CCOc1ccc(OCC)c(NS(=O)(=O)c2ccc3c(c2)CCCN3C(C)=O)c1,–,–,inactive: 6.7%
CCc1ccc(OCC(O)CN2CCN(c3ccccc3)CC2)cc1 (stereo not given),inactive,–,–

Structure (SMILES),Potency,outcome,activation
CCOc1ccc(NC(=O)CN(Cc2ccccc2)S(=O)(=O)c2ccc(Cl)cc2)cc1,–,–,inconclusive: 70.4% [activator]
CNC(=O)c1sc2nc(-c3ccc(OC)cc3)cn2c1C,–,–,inactive: -25%
CCC[N+](C)(C)C(C)C(OC(C)=O)c1ccccc1 (stereo not given),"inconclusive: 31.6 µM [activator, single point]",–,–
O=C(Nc1ccc(Br)cc1)N1CCC(CN2CCCC2)CC1,–,–,inconclusive: 35.6% [activator]
Cc1cccc(C)c1OCc1cc(C(=O)N2CCC(c3ccccc3)CC2)no1,–,–,inactive: -12.6%
C/C(CC(=O)Nc1cccc(C(F)(F)F)c1)=N\NC(=O)Cc1ccccc1,–,–,inactive: -62.5%
CC(=O)N1CCN(S(=O)(=O)c2ccc(S(=O)(=O)NCC(C)C)cc2)CC1,–,–,inconclusive: 40.8% [activator] [at 57.5 µM]
Cc1nn(CC(=O)OCC(=O)c2ccccc2)c(C)c1[N+](=O)[O-],–,–,inactive: 0.617%
CC(=O)CSc1nnc2c3ccccc3nc(C(C)(C)C)n12,–,–,inactive: -17.9%
C/C=C/c1ccc(OCCNCc2ccccc2)c(OC)c1,"inconclusive: 100 µM [activator, partial curve, poor fit]",–,–
COC(=O)c1nnn(CC(=O)Nc2cc(F)ccc2F)c1C(=O)OC,"inconclusive: 79.4 µM [activator, partial curve, poor fit]",–,–
CNC(=S)Nc1ccc(N2CCN(c3ccc(C(F)(F)F)cn3)CC2)nc1,–,inactive,–
CCOc1ccc(N(C(=O)CNC(=O)c2ccco2)C(C(=O)NC2CCCC2)c2cccnc2)cc1 (stereo not given),–,–,inconclusive: -40.5% [activator]
COCCN1C(=O)c2ccc(C(=O)NCc3cccnc3)cc2C1=O,–,–,inconclusive: 102% [activator] [at 57.5 µM]
CC(C)Oc1ccc(N2CC(C(=O)NC3=NCCS3)CC2=O)cc1 (stereo not given),"inconclusive: 44.7 µM [activator, single point]",–,–
Cc1nc2sccn2c(=O)c1S(=O)(=O)Nc1ccc(N2CCN(S(C)(=O)=O)CC2)cc1,inactive,–,–
CC1=CC(c2ccccc2)n2nc(N3C(=O)c4ccccc4C3=O)nc2N1 (stereo not given),"inconclusive: 39.8 µM [activator, single point]",–,–
Cc1ccc(S(=O)(=O)NCC(C)n2cncn2)cc1 (stereo not given),–,–,inconclusive: 41.7% [activator]
CSCSC1=C(C#N)C(c2ccccc2Cl)C(C(C)=O)=C(C)N1 (stereo not given),–,–,inconclusive: 173% [activator] [at 57.5 µM]
CCCOc1ccc(-c2cn3ccccc3n2)cc1,–,–,inactive: -82.1%
O=c1nc2ccccc2c2n1CC(CN1CCN(c3ccccc3F)CC1)N2 (stereo not given),–,–,inconclusive: -62.2% [activator] [at 57.5 µM]
CCC(CC)c1nnc(NC(=O)c2ccc(N3CCCC3=O)cc2)s1,"inconclusive: 1.41 µM [activator, single point]",–,–
CCC(C(=O)Nc1cnccn1)c1ccccc1 (stereo not given),"inconclusive: 0.767 µM [activator, full curve, poor fit]",–,–
NC(=O)c1c(-c2cccs2)csc1N,–,inactive,–

Structure (SMILES),Potency,outcome,activation
CCN(C(=O)COC(=O)c1[nH]c(=O)[nH]c(=O)c1N)c1ccccc1,–,inactive,–
CC1CCN(c2nc(-c3ccncc3)nc3ccccc23)CC1,"inconclusive: 39.8 µM [activator, single point]",–,–
CCOc1ccccc1OCCCCn1c(-c2ccc(Cl)cc2)nc2ccccc2c1=O,"inconclusive: 50.1 µM [activator, partial curve, poor fit]",–,–
O=C(CCCN1C(=O)c2ccccc2C1=O)N1CCN(c2ccccn2)CC1,"inconclusive: 31.6 µM [activator, single point]",–,–
C/C(=N/NC(=O)CNc1ccc(C)cc1)c1ccc(Br)s1,"inconclusive: 39.8 µM [activator, single point]",–,–
CC(C)(C)c1ccc(C(=O)c2c[nH]c(C(=O)NCCCN3CCOCC3)c2)cc1,–,–,inconclusive: 43.8% [activator] [at 57.5 µM]
O=C(CN1C(=O)NC2(CCCCCC2)C1=O)Nc1ccc([N+](=O)[O-])cc1,"inconclusive: 126 µM [activator, single point]",–,–
NS(=O)(=O)c1ccc(NC(=O)N[C@@H](Cc2ccccc2)C(=O)O)cc1,"inconclusive: 28.2 µM [activator, single point]",–,–
OCC1(CCc2ccccc2)CCN(Cc2cc(Cl)ccc2O)CC1,–,–,inconclusive: 42.5% [activator]
O=C(NC(=S)N1CCN(c2ccc(O)cc2)CC1)c1cccs1,"inconclusive: 89.1 µM [activator, partial curve, poor fit]",–,–
COc1ccc(CCNC(=O)CC2Nc3ccccc3NC2=O)cc1OC (stereo not given),–,–,inconclusive: 38.6% [activator] [at 57.5 µM]
O=S(=O)(/N=C(/c1ccccc1Cl)N1CCOCC1)c1ccccc1,"inconclusive: 4.47 µM [activator, full curve, poor fit]",–,–
COC(=O)C1=C(N)Oc2cc(C)n(CC3CCCO3)c(=O)c2C1c1ccccc1OC (stereo not given),–,inactive [at 57.5 µM],–
CCc1cc(-c2n[nH]c(C)c2-c2ccccc2Cl)c(O)cc1OC,"inconclusive: 89.1 µM [activator, partial curve, poor fit]",–,–
NC(=O)CSc1nnc(-c2cccs2)n1Cc1ccco1,–,inactive,–
O=C(CN1CCN(S(=O)(=O)c2ccc(Cl)cc2)CC1)NC1CC1,"inconclusive: 70.8 µM [activator, partial curve, poor fit]",–,–
COC(=O)CCCCCC(CCC(=O)OC)NC(C)=O (stereo not given),"inconclusive: 44.7 µM [activator, single point]",–,–
COc1ccc(CCNC(=O)C2CCCN(S(C)(=O)=O)C2)cc1 (stereo not given),"inconclusive: 5.01 µM [activator, full curve, poor fit]",–,–
CC(CNC(=O)CCC(=O)N1CCOc2ccc(Cl)cc21)c1ccccc1 (stereo not given),–,–,inactive: -21.1%
CNC(=O)C(=O)NCC(c1ccc2c(c1)OCO2)N1CCOCC1 (stereo not given),"inconclusive: 141 µM [activator, single point]",–,–
COc1ccc([C@H]2/C=C\CN(S(=O)(=O)/C=C/c3ccccc3)[C@@H](C)C(=O)N2Cc2ccc(F)cc2)cc1,–,inactive,–
O=S(=O)(NCc1ccccc1)c1cccc2nonc12,"inconclusive: 39.8 µM [activator, single point]",–,–

# Looked up by compound from the list above (2):
Structure (SMILES),Potency,outcome,activation
CC(=O)N1CCN(S(=O)(=O)c2ccc(S(=O)(=O)NCC(C)C)cc2)CC1,–,–,inconclusive: 40.8% [activator] [at 57.5 µM]
CNC(=O)C(=O)NCC(c1ccc2c(c1)OCO2)N1CCOCC1 (stereo not given),"inconclusive: 141 µM [activator, single point]",–,–
